Assay results: patent publication US9353423B2, “HCV genotype 6 replicons” (priority 2012, dated 2016)
At least one structure is not confirmed: it was looked up by name or label, or the drawing left a doubt.

Experiments:
[1] = system: Pi-GT6a-Rluc replicon; assay: Replicon antiviral assay, luciferase-encoding GT6a replicon (Table 4); assay type: cell-based, Hepatitis C virus genotype 6a; settings: summary of Table 4
Method: Replicon RNA were electroporated into 1C cells as described above. After transfection, cells were quickly transferred into 100 mL of pre-warmed culture medium, and 90 μl was seeded in 384-well plates at a density of 2,000 cells/well. Cells were treated with three-fold serial drug dilutions at 10 different concentrations. Cell plates were incubated at 37° C. for 3 days, after which culture medium was removed and cells were assayed for luciferase activity as markers for replicon levels. Luciferase expression was quantified using a commercial luciferase assay (Promega). Luciferase levels were converted into percentages relative to the levels in the untreated controls (defined as 100%), and data were fitted to the logistic dose-response equation y=a/[1+(x/b)^c] using XLFit4 software (IDBS, Emeryville, Calif.).

[2] = system: HCV genotype 1; settings: background statement; cited from earlier work
[3] = system: HCV genotype 3; settings: background statement; due to the Q168 polymorphism in NS3; cited from earlier work

Compound	antiviral activity against GT6a compared with GT1b [1]	antiviral activity against genotype 1 [2]	antiviral activity against genotype 3 [3]
COC(=O)N[C@H](C(=O)N1CCC[C@H]1c1nc(-c2ccc(-c3ccc(-c4c[nH]c([C@@H]5CCCN5C(=O)[C@@H](NC(=O)OC)C(C)C)n4)cc3)cc2)c[nH]1)C(C)C [Daclatasvir, daclatasvir]	retained activity against GT6a		
CCC[C@H](NC(=O)[C@@H]1[C@H]2CCC[C@H]2CN1C(=O)[C@@H](NC(=O)[C@@H](NC(=O)c1cnccn1)C1CCCCC1)C(C)(C)C)C(=O)C(=O)NC1CC1 [Telaprevir]		potent against genotype 1	significantly reduced antiviral activity against genotype 3
